PubChem BioAssay AID1259424 | University of Nebraska Medical Center – 2018

- Screen: 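Find knockdowns that reproduce the expression shifts seen after KSR1 loss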 (primary screen)
- System: human HCT116 colon cancer cells
- Reagent: siRNA pool against human genes, 50 nM
- Read-out: 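Six signature mRNAs by branched-DNA multiplex assay, scaled to two housekeeping genes and non-targeting median, log2; matched to mean KSR1 knockdown profile by Pearson correlation and euclidean distance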
- Direction: mean correlation with KSR1 profile and KSR1 correlation: higher = expression change more like KSR1 knockdown; mean distance from KSR1 profile: higher = expression change less like KSR1 knockdown
The whole screen tested about 14,000 reagents; below is an unselected part. 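Higher correlation or smaller distance means closer resemblance to KSR1 loss; control wells, including KSR1 knockdowns, recur on many plates.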 No sequences are given here. Not given: the time to read-out.

no.	target gene	mean correlation with KSR1 profile	mean distance from KSR1 profile	KSR1 correlation, replicate 1	KSR1 correlation, replicate 2	KSR1 correlation, replicate 3
1	SAV1 (GeneID 60485)	-0.382	1.78	-0.433	-0.416	-0.557
2	TRMT112 (GeneID 51504)	-0.471	2.46	-0.504	-0.499	-0.311
3	TRPC1 (GeneID 7220)	-0.146	2.16	0.0436	-0.236	-0.278
4	SLC25A17 (GeneID 10478)	0.375	2.68	0.362	0.291	0.419
5	ITGAX (GeneID 3687)	0.333	1.06	0.308	0.387	0.429
6	GAP43 (GeneID 2596)	0.199	2.27	0.41	0.168	-0.357
7	ABCB7 (GeneID 22)	-0.822	3.34	-0.841	-0.726	-0.767
8	ELN (GeneID 2006)	-0.0333	1.92	0.173	-0.0426	-0.144
9	CCNF (GeneID 899)	-0.248	1.97	-0.343	-0.252	-0.288
10	PDE4DIP (GeneID 9659)	-0.0859	1.53	0.271	0.342	-0.329
11	INSR (GeneID 3643)	0.126	2.41	0.232	0.134	0.0665
12	HNMT (GeneID 3176)	0.584	1.45	0.584	0.488	0.636
13	ZNF214 (GeneID 7761)	0.366	1.83	0.231	0.157	0.636
14	IFRD2 (GeneID 7866)	-0.219	1.81	-0.138	-0.175	-0.287
15	MTO1 (GeneID 25821)	-0.614	2.23	-0.484	-0.801	-0.437
16	ALDH3B1 (GeneID 221)	-0.192	3.98	-0.243	0.0731	-0.163
17	ARHGEF5 (GeneID 7984)	0.566	2.21	0.732	0.613	0.315
18	ARMCX6 (GeneID 54470)	-0.19	1.76	-0.188	-0.375	-0.05
19	NUCB2 (GeneID 4925)	0.134	1.68	0.0604	0.284	-0.444
20	AKAP7 (GeneID 9465)	0.643	1.53	0.737	0.73	0.0966
